Assay results as given in article PMC11832342.

T1: GFP-tagged NHP2 (Arabidopsis) (UniProt Q9LEY9)
T1 sequence: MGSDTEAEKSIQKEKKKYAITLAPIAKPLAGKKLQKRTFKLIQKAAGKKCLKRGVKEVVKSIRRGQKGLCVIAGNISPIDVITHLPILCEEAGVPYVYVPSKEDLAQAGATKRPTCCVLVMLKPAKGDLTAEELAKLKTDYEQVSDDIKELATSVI

B1: AGO2 (protein, UniProt Q9SHF3 1-1014)
chain: MERGGYRGGRGDGRGRGGRGYGGGGGGGEQGRDRGYGGGEQGRGRGSERGGGNRGQGRGEQQDFRSQSQRGPPPGHGGRGTTQFQQPRPQVAPQPSQAPASYAGSVGGVAGRGAWGRKPQVPSDSASPSTSTTVVSEPVRVAEVMNLKPSVQVATSDRKEPMKRPDRGGVVAVRRVNLYVNHYKVNFNPESVIRHYDVEIKGEIPTKKVSRFELAMVRDKVFTDNPDEFPLAMTAYDGQKNIFSAVELPTGSYKVEYPKTEEMRGRSYTFTIKQVNVLKLGDLKEYMTGRSSFNPRDVLQGMDVVMKEHPSKCMITVGKSFFTRETEPDEDFRFGVIAAKGYRHTLKPTAQGLSLCLDYSVLAFRKAMSVIEYLKLYFNWSDMRQFRRRDVEEELIGLKVTVNHRKNKQKLTIVGLSMQNTKDIKFDLIDQEGNEPPRKTSIVEYFRIKYGRHIVHKDIPCLDLGKNGRQNFVPMEFCDLVEGQIYPKDNLDKDSALWLKKLSLVNPQQRQRNIDKMIKARNGPSGGEIIGNFGLKVDTNMTPVEGRVLKAPSLKLAERGRVVREEPNPRQNNQWNLMKKGVTRGSIVKHWAVLDFTASERFNKMPNDFVDNLIDRCWRLGMQMEAPIVYKTSRMETLSNGNAIEELLRSVIDEASRKHGGARPTLVLCAMSRKDDGYKTLKWIAETKLGLVTQCFLTGPATKGGDQYRANLALKMNAKVGGSNVELMDTFSFFKKEDEVMFIGADVNHPAARDKMSPSIVAVVGTLNWPEANRYAARVIAQPHRKEEIQGFGDACLELVKAHVQATGKRPNKIVIFRDGVSDAQFDMVLNVELLDVKLTFEKNGYNPKITVIVAQKRHQTRFFPATNNDGSDKGNVPSGTVVDTKVIHPYEYDFYLCSHHGGIGTSKPTHYYTLWDELGFTSDQVQKLIFEMCFTFTRCTKPVSLVPPVYYADMVAFRGRMYHEASSREKNFKQPRGASTSAASLASSLSSLTIEDKAIFKLHAELENVMFFV
B2: AGO10 (protein, UniProt Q9XGW1 1-988)
chain: MPIRQMKDSSETHLVIKTQPLKHHNPKTVQNGKIPPPSPSPVTVTTPATVTQSQASSPSPPSKNRSRRRNRGGRKSDQGDVCMRPSSRPRKPPPPSQTTSSAVSVATAGEIVAVNHQMQMGVRKNSNFAPRPGFGTLGTKCIVKANHFLADLPTKDLNQYDVTITPEVSSKSVNRAIIAELVRLYKESDLGRRLPAYDGRKSLYTAGELPFTWKEFSVKIVDEDDGIINGPKRERSYKVAIKFVARANMHHLGEFLAGKRADCPQEAVQILDIVLRELSVKRFCPVGRSFFSPDIKTPQRLGEGLESWCGFYQSIRPTQMGLSLNIDMASAAFIEPLPVIEFVAQLLGKDVLSKPLSDSDRVKIKKGLRGVKVEVTHRANVRRKYRVAGLTTQPTRELMFPVDENCTMKSVIEYFQEMYGFTIQHTHLPCLQVGNQKKASYLPMEACKIVEGQRYTKRLNEKQITALLKVTCQRPRDRENDILRTVQHNAYDQDPYAKEFGMNISEKLASVEARILPAPWLKYHENGKEKDCLPQVGQWNMMNKKMINGMTVSRWACVNFSRSVQENVARGFCNELGQMCEVSGMEFNPEPVIPIYSARPDQVEKALKHVYHTSMNKTKGKELELLLAILPDNNGSLYGDLKRICETELGLISQCCLTKHVFKISKQYLANVSLKINVKMGGRNTVLVDAISCRIPLVSDIPTIIFGADVTHPENGEESSPSIAAVVASQDWPEVTKYAGLVCAQAHRQELIQDLYKTWQDPVRGTVSGGMIRDLLISFRKATGQKPLRIIFYRDGVSEGQFYQVLLYELDAIRKACASLEPNYQPPVTFIVVQKRHHTRLFANNHRDKNSTDRSGNILPGTVVDTKICHPTEFDFYLCSHAGIQGTSRPAHYHVLWDENNFTADGIQSLTNNLCYTYARCTRSVSIVPPAYYAHLAAFRARFYLEPEIMQDNGSPGKKNTKTTTVGDVGVKPLPALKENVKRVMFYC
B3: AGO1 (protein, UniProt O04379 1-1048)
chain: MVRKRRTDAPSEGGEGSGSREAGPVSGGGRGSQRGGFQQGGGQHQGGRGYTPQPQQGGRGGRGYGQPPQQQQQYGGPQEYQGRGRGGPPHQGGRGGYGGGRGGGPSSGPPQRQSVPELHQATSPTYQAVSSQPTLSEVSPTQVPEPTVLAQQFEQLSVEQGAPSQAIQPIPSSSKAFKFPMRPGKGQSGKRCIVKANHFFAELPDKDLHHYDVTITPEVTSRGVNRAVMKQLVDNYRDSHLGSRLPAYDGRKSLYTAGPLPFNSKEFRINLLDEEVGAGGQRREREFKVVIKLVARADLHHLGMFLEGKQSDAPQEALQVLDIVLRELPTSRYIPVGRSFYSPDIGKKQSLGDGLESWRGFYQSIRPTQMGLSLNIDMSSTAFIEANPVIQFVCDLLNRDISSRPLSDADRVKIKKALRGVKVEVTHRGNMRRKYRISGLTAVATRELTFPVDERNTQKSVVEYFHETYGFRIQHTQLPCLQVGNSNRPNYLPMEVCKIVEGQRYSKRLNERQITALLKVTCQRPIDREKDILQTVQLNDYAKDNYAQEFGIKISTSLASVEARILPPPWLKYHESGREGTCLPQVGQWNMMNKKMINGGTVNNWICINFSRQVQDNLARTFCQELAQMCYVSGMAFNPEPVLPPVSARPEQVEKVLKTRYHDATSKLSQGKEIDLLIVILPDNNGSLYGDLKRICETELGIVSQCCLTKHVFKMSKQYMANVALKINVKVGGRNTVLVDALSRRIPLVSDRPTIIFGADVTHPHPGEDSSPSIAAVVASQDWPEITKYAGLVCAQAHRQELIQDLFKEWKDPQKGVVTGGMIKELLIAFRRSTGHKPLRIIFYRDGVSEGQFYQVLLYELDAIRKACASLEAGYQPPVTFVVVQKRHHTRLFAQNHNDRHSVDRSGNILPGTVVDSKICHPTEFDFYLCSHAGIQGTSRPAHYHVLWDENNFTADGLQSLTNNLCYTYARCTRSVSIVPPAYYAHLAAFRARFYMEPETSDSGSMASGSMARGGGMAGRSTRGPNVNAAVRPLPALKENVKRVMFYC
B4: AGO5 (protein, UniProt Q9SJK3 1-997)
chain: MSNRGGGGHGGASRGRGGGRRSDQRQDQSSGQVAWPGLQQSYGGRGGSVSAGRGRGNVGRGENTGDLTATQVPVASAVSGGRGRGNIGDPTFSVASSSKTVSVASSSKEESKNTEVSETMSNLQITSTETKPEMTSLPPASSKAVTFPVRPGRGTLGKKVMVRANHFLVQVADRDLYHYDVSINPEVISKTVNRNVMKLLVKNYKDSHLGGKSPAYDGRKSLYTAGPLPFDSKEFVVNLAEKRADGSSGKDRPFKVAVKNVTSTDLYQLQQFLDRKQREAPYDTIQVLDVVLRDKPSNDYVSVGRSFFHTSLGKDARDGRGELGDGIEYWRGYFQSLRLTQMGLSLNIDVSARSFYEPIVVTDFISKFLNIRDLNRPLRDSDRLKVKKVLRTLKVKLLHWNGTKSAKISGISSLPIRELRFTLEDKSEKTVVQYFAEKYNYRVKYQALPAIQTGSDTRPVYLPMELCQIDEGQRYTKRLNEKQVTALLKATCQRPPDRENSIKNLVVKNNYNDDLSKEFGMSVTTQLASIEARVLPPPMLKYHDSGKEKMVNPRLGQWNMIDKKMVNGAKVTSWTCVSFSTRIDRGLPQEFCKQLIGMCVSKGMEFKPQPAIPFISCPPEHIEEALLDIHKRAPGLQLLIVILPDVTGSYGKIKRICETELGIVSQCCQPRQVNKLNKQYMENVALKINVKTGGRNTVLNDAIRRNIPLITDRPTIIMGADVTHPQPGEDSSPSIAAVVASMDWPEINKYRGLVSAQAHREEIIQDLYKLVQDPQRGLVHSGLIREHFIAFRRATGQIPQRIIFYRDGVSEGQFSQVLLHEMTAIRKACNSLQENYVPRVTFVIVQKRHHTRLFPEQHGNRDMTDKSGNIQPGTVVDTKICHPNEFDFYLNSHAGIQGTSRPAHYHVLLDENGFTADQLQMLTNNLCYTYARCTKSVSIVPPAYYAHLAAFRARYYMESEMSDGGSSRSRSSTTGVGQVISQLPAIKDNVKEVMFYC

The binders below were run against T1, GFP-tagged NHP2 (Arabidopsis) (assay: affinity purification with mass spectrometry; IP of GFP-tagged NHP2 from 0.6 g plant tissue with anti-GFP magnetic microbeads (lysis buffer 50 mM Tris-HCl pH 8.0, 50 mM NaCl, 1% Triton X-100); control IP from Col-0 plants; 3 replicates; LC-MS/MS).

binding	Binder
binds	B1
binds	B2
binds	B3
binds	B4

No constants are given. Whether binding was seen depends on the method and setting. In cells and extracts the contact can be indirect. These calls come from enrichment with a bait or labelling near it, and not all partners need be listed. Sequences can lack the tags named with a protein.
